## Screening data, single-dose tests

Protein sequences, listed by entry. Tags and fused reporters are not part of them. Residues count along the entry.
UniProt P9WNZ1, whole entry: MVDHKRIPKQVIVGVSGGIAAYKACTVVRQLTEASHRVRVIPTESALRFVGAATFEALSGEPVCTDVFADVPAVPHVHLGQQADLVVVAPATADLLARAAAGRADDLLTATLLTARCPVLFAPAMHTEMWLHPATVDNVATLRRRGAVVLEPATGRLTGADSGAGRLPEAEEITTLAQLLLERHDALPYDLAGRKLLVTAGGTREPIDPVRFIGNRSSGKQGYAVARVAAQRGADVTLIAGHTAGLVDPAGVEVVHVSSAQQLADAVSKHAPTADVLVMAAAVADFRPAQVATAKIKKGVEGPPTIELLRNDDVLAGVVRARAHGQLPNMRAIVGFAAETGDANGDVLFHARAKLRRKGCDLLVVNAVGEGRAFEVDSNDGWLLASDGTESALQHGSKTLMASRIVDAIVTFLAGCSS
UniProt I6X8D2, whole entry: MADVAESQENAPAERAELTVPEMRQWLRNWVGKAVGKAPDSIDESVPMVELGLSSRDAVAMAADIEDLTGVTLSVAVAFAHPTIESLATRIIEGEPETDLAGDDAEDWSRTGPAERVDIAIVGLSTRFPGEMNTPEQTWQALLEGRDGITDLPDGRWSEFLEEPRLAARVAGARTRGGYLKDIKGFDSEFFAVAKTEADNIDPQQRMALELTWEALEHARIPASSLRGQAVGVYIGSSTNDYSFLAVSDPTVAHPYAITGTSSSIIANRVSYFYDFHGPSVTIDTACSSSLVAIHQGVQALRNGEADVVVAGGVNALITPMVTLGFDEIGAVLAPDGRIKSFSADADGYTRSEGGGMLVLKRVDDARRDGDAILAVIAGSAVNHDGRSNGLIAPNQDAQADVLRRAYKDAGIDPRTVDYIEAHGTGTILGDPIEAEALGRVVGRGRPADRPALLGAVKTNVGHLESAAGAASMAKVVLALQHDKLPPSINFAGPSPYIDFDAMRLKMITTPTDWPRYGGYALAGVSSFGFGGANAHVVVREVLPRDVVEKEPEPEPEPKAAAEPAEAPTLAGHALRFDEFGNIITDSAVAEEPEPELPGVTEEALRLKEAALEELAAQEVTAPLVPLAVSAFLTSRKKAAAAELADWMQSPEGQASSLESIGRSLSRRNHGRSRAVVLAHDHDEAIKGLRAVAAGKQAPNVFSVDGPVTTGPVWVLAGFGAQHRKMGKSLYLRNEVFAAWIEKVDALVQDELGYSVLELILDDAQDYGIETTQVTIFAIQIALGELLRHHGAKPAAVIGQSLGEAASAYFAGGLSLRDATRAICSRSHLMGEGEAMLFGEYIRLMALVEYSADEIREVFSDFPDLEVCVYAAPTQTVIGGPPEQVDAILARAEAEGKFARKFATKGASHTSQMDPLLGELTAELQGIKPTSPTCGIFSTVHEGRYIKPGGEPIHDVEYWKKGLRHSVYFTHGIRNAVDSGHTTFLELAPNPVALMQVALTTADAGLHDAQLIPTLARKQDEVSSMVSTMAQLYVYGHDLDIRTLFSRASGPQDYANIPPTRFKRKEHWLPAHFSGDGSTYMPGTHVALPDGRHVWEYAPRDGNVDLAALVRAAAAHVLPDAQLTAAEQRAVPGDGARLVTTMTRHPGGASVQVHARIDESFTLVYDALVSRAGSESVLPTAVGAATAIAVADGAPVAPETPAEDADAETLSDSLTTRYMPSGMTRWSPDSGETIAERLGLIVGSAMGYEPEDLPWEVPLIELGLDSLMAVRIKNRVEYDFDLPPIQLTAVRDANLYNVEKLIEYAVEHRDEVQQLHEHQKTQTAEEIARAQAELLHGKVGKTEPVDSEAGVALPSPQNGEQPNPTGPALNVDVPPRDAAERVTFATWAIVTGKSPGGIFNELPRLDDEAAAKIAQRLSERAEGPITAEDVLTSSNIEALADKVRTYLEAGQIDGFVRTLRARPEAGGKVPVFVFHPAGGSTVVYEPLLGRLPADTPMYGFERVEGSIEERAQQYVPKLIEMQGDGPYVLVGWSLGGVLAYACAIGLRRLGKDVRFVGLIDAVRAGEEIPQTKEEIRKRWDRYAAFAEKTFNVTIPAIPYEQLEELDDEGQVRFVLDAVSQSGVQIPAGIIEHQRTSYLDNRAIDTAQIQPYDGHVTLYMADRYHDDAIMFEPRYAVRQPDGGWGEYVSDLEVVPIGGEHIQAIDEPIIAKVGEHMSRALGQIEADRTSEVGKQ
UniProt P9WPC5, whole entry: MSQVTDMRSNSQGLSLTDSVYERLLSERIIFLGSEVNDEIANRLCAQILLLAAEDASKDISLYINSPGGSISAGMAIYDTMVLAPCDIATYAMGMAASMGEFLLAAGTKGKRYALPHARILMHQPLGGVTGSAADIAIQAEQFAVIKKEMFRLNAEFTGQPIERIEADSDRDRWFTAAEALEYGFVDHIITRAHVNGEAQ
UniProt P9WPC3, whole entry partner: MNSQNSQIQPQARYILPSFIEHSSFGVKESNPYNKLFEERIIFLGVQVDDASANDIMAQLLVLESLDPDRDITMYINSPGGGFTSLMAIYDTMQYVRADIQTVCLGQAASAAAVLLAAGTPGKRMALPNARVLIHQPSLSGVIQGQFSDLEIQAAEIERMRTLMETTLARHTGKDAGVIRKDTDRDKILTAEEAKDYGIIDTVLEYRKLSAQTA
UniProt A4I591, 1-473: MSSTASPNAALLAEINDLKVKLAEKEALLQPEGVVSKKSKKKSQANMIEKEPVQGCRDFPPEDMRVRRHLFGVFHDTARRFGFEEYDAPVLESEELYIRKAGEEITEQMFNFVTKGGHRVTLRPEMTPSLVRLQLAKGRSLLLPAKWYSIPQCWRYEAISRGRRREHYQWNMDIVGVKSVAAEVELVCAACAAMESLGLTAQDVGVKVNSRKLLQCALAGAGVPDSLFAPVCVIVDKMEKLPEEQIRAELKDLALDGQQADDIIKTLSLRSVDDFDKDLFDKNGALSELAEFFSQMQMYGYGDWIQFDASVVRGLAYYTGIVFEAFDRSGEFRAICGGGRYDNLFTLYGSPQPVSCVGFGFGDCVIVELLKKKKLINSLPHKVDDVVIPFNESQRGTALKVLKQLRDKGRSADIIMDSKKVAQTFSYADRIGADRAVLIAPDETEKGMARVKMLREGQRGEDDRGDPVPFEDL
UniProt P9WFT3, whole entry: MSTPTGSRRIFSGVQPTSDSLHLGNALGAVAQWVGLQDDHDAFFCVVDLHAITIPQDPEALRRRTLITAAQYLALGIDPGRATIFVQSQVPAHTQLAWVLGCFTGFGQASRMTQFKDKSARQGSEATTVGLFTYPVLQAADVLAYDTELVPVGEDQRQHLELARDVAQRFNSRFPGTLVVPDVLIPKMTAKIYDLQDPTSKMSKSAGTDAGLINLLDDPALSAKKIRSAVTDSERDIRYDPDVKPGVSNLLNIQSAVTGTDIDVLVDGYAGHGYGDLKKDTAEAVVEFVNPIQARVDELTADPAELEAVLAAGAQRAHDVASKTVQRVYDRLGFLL

Measurements from “University of Dundee, Small-Polar-MMV Screening Library” (2021), ChEMBL document CHEMBL3988442.

CoaBC: 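Enzyme assay of CoaBC with a phosphate dye (Biomol Green) read at 650 nm. Target: Coenzyme A biosynthesis protein CoaBC, Mycobacterium tuberculosis (UniProt P9WNZ1). Compounds at 30 µM. Higher reads as stronger inhibition, judged from the few compounds that gave an IC50. Most strong results did not repeat in a second test. About 67,000 compounds were tested under these conditions; 0.06% (about 40) showed 50% or more at least once.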
Pks13 thioesterase: 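Polyketide synthase Pks13, Mycobacterium tuberculosis (UniProt I6X8D2). Enzyme assay of the thioesterase domain of polyketide synthase 13; the read-out is not stated. Tested at 30 µM. Higher reads as stronger inhibition (inferred from which compounds were picked for retests). About 67,000 compounds were tested under these conditions; 0.46% (about 300) showed 50% or more at least once.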
ClpP1P2: 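ClpP1P2, Mycobacterium tuberculosis (UniProt P9WPC5 and UniProt P9WPC3). Protease assay of ClpP1P2, read by the AMC dye that it sets free. Tested at 50 µM. Direction is inferred from only a few compounds that gave an IC50; most scored high, so higher reads as stronger inhibition. Most other retested compounds had strongly negative values. Size under these conditions: about 69,000 compounds, about 10 of them at 50% or above in at least one test.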
LiHisRS: 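Histidine-tRNA ligase, Leishmania infantum (UniProt A4I591). Enzyme assay of histidyl-tRNA synthetase; the read-out is not stated. Tested at 30 µM. The record gives no direction; compounds that gave an IC50 in retests scored well above the rest, so higher reads as stronger inhibition. The assay is labelled LdHisRS but filed under L. infantum. About 69,000 compounds were tested under these conditions; 0.6% (about 410) showed 50% or more at least once.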
MtTrpRS: 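Tryptophan-tRNA ligase, Mycobacterium tuberculosis (UniProt P9WFT3). Enzyme assay of tryptophanyl-tRNA synthetase; the read-out is not stated. Compounds at 10 µM. Direction is not recorded; retested compounds ran higher, which suggests that high means inhibition. Of about 65,000 compounds tested this way, about 64 (0.098%) reached 50% or more in at least one test.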

Each number is a percent effect as filed.
The controls that fix the scale are not given in the record; negative values are as filed.
The compounds are a random part of those screened.
Two or more numbers in one place are separate tests of the same structure; such repeats can differ widely.
A dash means the value is not listed here; it may have been measured.

compound,CoaBC,Pks13 thioesterase,ClpP1P2,LiHisRS,MtTrpRS
Cc1cnn(C2CN(CC(O)c3ccccc3)C2)c1 (stereo not shown),0.123,2.886,-11.26,17.74,2.058
Cc1cccc(-c2nc(CNC3CCc4ncnn4C3)no2)c1 (stereo not shown),6.513,5.636,-33.24,13.39,-3.008
O=C1CN(CC2CC2)Cc2nc(NCCc3ccccn3)sc21,-0.8434,-10.18,-7.383,8.571,-
CC(=O)N1CCN([C@@H]2CC[C@@H](NC(=O)c3cc(C)cs3)[C@H]2O)CC1,-2.663,2.57,2.494,14.43,-
CN(C)C(=O)c1cccc(CNc2ccc(C#N)cn2)c1,0.4969,-30.84,0.124,7.937,0.8258
CCOc1cncc(N2CCOCC2)n1,4.669,4.555,2.346,-6.306,-0.000009
Cc1ncccc1Oc1ncnc(N2CCC3(CCCO3)CC2)c1C,3.329,-11.39,-15.2,8.065,-0.9009
O=C1[C@H]2CN(Cc3ccncc3)C[C@H]2CN1c1cncnc1,0.1631,-2.072,-10.81,6.849,-1.044
Cc1nc(CNCc2c(C(C)C)nn(C)c2N2CCOCC2)cs1,7.985,6.134,-19.55,19.64,-2.197
CSc1ccc(C(C(=O)O)N2CCC(CO)CC2)cc1 (stereo not shown),4.316,-17.7,-12.97,14.52,-6.306
CCc1noc(-c2cccc(OCC(=O)NC(C)C)c2)n1,4.875,-13.03,7.831,16.44,1.018
Cc1ccc2cc(CNCCCN3CCOCC3)c(=O)[nH]c2c1C,1.471,62.32,-9.37,9.375,-
CCc1ccc(CN2CCC3(CC2)NC(=O)CC3c2ccncc2)o1 (stereo not shown),3.99,-5.309,7.203,17.65,-3.931
COc1ccc(CN(C)CC(=O)NC2(C)CCS(=O)(=O)C2)cc1F (stereo not shown),2.999,0.7331,-10.84,4.054,0.4223
Cc1cnc(C(=O)NCc2cccnc2OC(C)C)cn1,1.513,-16.48,-11.33,14.91,7.627
CN(Cc1nc(C2CC2)no1)C1CCCN(c2cccnn2)C1 (stereo not shown),0.5141,-20.84,-0.8998,-14.61,-3.068
Cc1nc2ccccc2nc1CN(C)C1CCCN(c2cccnn2)C1 (stereo not shown),11.45,-1.015,-15.98,18.18,2.685
COc1coc(CN2CCCC3(CCC(=O)N(CC4CC4)C3)C2)cc1=O (stereo not shown),1.46,1.368,-7.559,22.22,-1.38
Cn1cnnc1SCc1cc2c(cc1Cl)OCO2,2.309,-15.1,2.271,10.87,0.9646
CC(C)Nc1ncccc1C(=O)NCc1ccnn1C,18.34,-12.1,-19.74,24.66,10.88
O=C(CNC(=O)C1CC1)Nc1c(F)cccc1Oc1ccccc1,1.276,-25.98,3.012,13.33,0.8738
COCCN1CCc2c(c(COc3cccnc3)nn2C)C1,3.457,-3.56,0.879,4.545,-
CC(C)C(=O)N1CC[C@@H]2[C@H](CC1)N(Cc1cccnc1)CCS2(=O)=O,0.9877,-7.828,-8.471,4.167,-0.9982
Cc1cnn(CC2CCCCN2C(=O)Cc2cn3ccsc3n2)c1 (stereo not shown),2.926,-13.31,21.2,-2.609,7.54
O=C(c1nc(=O)[nH]c2ccccc12)N1CCCC(CC2CC2)(C(=O)O)C1 (stereo not shown),2.58,16.12,-63.59,18.6,3.038
CC(CNC(=O)NCc1ccco1)CC1(C)OCCO1 (stereo not shown),-,-,-4.504,-316.9,2.926
Cc1ccc(C(=O)N2CCC(Oc3c(C)cccc3C)CC2)c(=O)[nH]1,8.492,-0.4042,-36.5,8.929,-5.838
CNC(=O)C1CN(c2cc(C)ncn2)CCN1Cc1ccccc1 (stereo not shown),-0.2427,-10.75,2.266,8.571,5.004
COc1cc(N2CCC3(CCCN3Cc3ccn(C)n3)CC2)ncn1,1.667,-8.057,-12.76,17.95,-4.161
COC(=O)C(C)(C)NC(=O)c1scnc1Cl,-2.381,-3.377,8.698,-2.679,0.3812
N#CCSCC(=O)NCC1CCCCC1,4.04,-9.434,7.463,13.83,-4.516
CC(=O)N1CCC(N2CCN3C(=O)N(Cc4ccccn4)C[C@H]3C2)CC1,15.87 & 21.81,-19.04,-15.37,29.73,-4.348
COc1cc(NC(=O)c2ccc(C)cc2C)c(C(=O)N(C)C)cc1OC,-7.025,-9.963,12.38,9.821,-0.5069
Cc1cc(-c2cnc(N3CCNC(=O)C3)nc2-c2ccncc2)on1,-1.363,-18.24,-6.113,-6,-
CC(C)c1nc(C2CCCN2CCS(=O)(=O)c2ccccc2)no1 (stereo not shown),0.2632,-18.08,-15.28,6.481,-4.679
CCN1C(=O)C2(CCCCC2)NC12CCSCC2,-1.449,-14.59,-0.3977,15.15,-6
COc1ccc(-c2cc3nc([C@H](C)NC(=O)C4CC4)nn3cn2)cc1,-4.136,3.614,-7.874,7.368,-4.232
CC(=O)N(C)Cc1ccccc1NCc1c(C)cccc1C,7.863,-15.91,2.012,12.12,-3.431
CC(C)c1noc(CS(=O)(=O)CC(=O)NCc2ccccc2)n1,9.091,-21.81,1.887,9.333,-3.625
Cc1nc(CCN(C)C(=O)CN2C(=O)OC[C@@H]2c2ccccc2)no1,-1.585,-3.353,-9.282,6.593,0.6623
Cc1cc(C)n(CCCN(C)Cc2cn[nH]c2-c2ccc(F)cc2)n1,6.889,-19.13,-1.774,14.29,2.304
Cc1nc2c(c(=O)n1C)CCN(C(=O)CCc1ccccn1)CC2,-7.863,-14.99,4.556,24.24,-2.018
CCOCCNC(=O)CCC1CCCO1 (stereo not shown),7.985,-34.88,4.037,12.4,-1.232
COCC(=O)N1CCC2(CC1)CC(COC)N(Cc1ccccn1)C2 (stereo not shown),2.97,-4.465,-9.372,8.108,-
Cn1ccnc1C1(O)CCCN(Cc2ccncc2)CC1 (stereo not shown),7.398,3.689,-13.17,2.817,-3.562
O=c1cc2c(nn1CN1CCC(c3ccccc3)CC1)CCC2,-0.5089,-,-15.71,17.95,-1.503
Cc1cccc(CN2CC3(CCN(S(=O)(=O)C4CC4)CC3)OCC2=O)n1,-9.63,-4.932,-9.356,-1.389,-2.995

2 of the entries, repeated:

compound,CoaBC,Pks13 thioesterase,ClpP1P2,LiHisRS,MtTrpRS
COCCN1CCc2c(c(COc3cccnc3)nn2C)C1,3.457,-3.56,0.879,4.545,-
CCOc1cncc(N2CCOCC2)n1,4.669,4.555,2.346,-6.306,-0.000009